From patent US7022528B2, “Method and apparatus for improving in vitro measurement of membrane permeability of chemical compounds” (Pion, Inc., priority 2002, dated 2006)
For some assays here: At least one structure is not confirmed: it was looked up by name or label, or the drawing left a doubt. Some results were stated once for a whole list of compounds, not compound by compound.

Key:
[1] = PAMPA, 100% octanol, pH 7.4 (Model 2.0); format: in vitro ADME; conditions: Model 2.0, pH 7.4
Caco-2 = conditions: PEG400 at 10% concentration in donor solution; cited from earlier work

Row | SMILES | membrane retention R [1] | decrease in the permeability of dexamethasone (Caco-2)
1 | CN(C)CCCN1c2ccccc2CCc2ccccc21 [imipramine] | > 70% | 
2 | CC(=O)[C@H]1CC[C@H]2[C@@H]3CCC4=CC(=O)CC[C@]4(C)[C@H]3CC[C@]12C [progesterone] | > 90% | 
3 | CC(CN1c2ccccc2Sc2ccccc21)N(C)C (centres unmarked) [promethazine] | > 70% | 
4 | C[C@@H]1C[C@H]2[C@@H]3CCC4=CC(=O)C=C[C@]4(C)[C@@]3(F)[C@@H](O)C[C@]2(C)[C@@]1(O)C(=O)CO [dexamethasone] |  | 75%
5 | Nc1ccc(/N=N/c2ccccc2)c(N)n1 [phenazopyridine] | > 70% | 
